From article PMC3968126
No constants are given. Whether binding was seen depends on the method and setting. In cells and extracts the contact can be indirect. Some binding calls cover weakened binding; strength is not graded here. For some assays here: Tags and fused reporters may be left off the sequences shown.

The chains behind the UniProt entries cited, without tags or fusion partners.
UniProt O43765: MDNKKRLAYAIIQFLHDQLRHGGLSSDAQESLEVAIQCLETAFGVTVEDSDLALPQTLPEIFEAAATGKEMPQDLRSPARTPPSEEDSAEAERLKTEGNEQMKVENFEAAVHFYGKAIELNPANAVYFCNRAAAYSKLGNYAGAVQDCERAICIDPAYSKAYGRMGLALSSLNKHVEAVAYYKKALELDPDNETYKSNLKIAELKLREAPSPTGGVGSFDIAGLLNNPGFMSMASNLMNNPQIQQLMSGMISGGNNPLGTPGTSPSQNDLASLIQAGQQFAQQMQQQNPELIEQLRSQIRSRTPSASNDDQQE
UniProt P11142: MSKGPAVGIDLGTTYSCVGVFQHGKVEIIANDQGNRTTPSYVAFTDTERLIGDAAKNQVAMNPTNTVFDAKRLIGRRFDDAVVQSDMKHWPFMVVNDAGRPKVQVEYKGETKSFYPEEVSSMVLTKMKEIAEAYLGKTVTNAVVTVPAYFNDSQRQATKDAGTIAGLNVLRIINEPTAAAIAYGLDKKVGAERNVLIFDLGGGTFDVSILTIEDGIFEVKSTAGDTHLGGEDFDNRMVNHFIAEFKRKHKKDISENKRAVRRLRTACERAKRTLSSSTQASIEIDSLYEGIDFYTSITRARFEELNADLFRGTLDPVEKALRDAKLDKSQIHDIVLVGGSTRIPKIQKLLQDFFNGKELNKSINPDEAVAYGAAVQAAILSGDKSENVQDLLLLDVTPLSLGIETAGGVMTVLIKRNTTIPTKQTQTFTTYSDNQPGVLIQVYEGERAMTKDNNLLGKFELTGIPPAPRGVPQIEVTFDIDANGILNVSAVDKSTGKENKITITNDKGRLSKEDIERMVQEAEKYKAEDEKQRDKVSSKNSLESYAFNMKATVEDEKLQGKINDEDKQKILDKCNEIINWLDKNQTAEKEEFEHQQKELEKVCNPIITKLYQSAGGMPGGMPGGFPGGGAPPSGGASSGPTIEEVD

Experiments:
[1] = biological target: T1, B14-3xFLAG (human) (UniProt Q8TBM8); experiment: co-IP; eluates of B14-3xFLAG immunopurification (0.1% digitonin, anti-FLAG M2 agarose, 3xFLAG peptide elution) immunoblotted
T1 sequence: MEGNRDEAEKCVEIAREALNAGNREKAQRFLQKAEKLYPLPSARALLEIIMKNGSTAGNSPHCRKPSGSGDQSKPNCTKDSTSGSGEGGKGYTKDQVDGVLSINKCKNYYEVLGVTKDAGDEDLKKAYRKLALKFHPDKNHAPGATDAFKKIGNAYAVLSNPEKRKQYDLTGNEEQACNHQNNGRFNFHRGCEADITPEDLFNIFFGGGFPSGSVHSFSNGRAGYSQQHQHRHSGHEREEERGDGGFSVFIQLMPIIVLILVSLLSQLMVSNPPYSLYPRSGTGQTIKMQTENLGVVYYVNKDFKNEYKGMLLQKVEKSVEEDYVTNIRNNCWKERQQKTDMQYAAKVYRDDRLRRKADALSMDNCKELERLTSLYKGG

[2] = biological target: small glutamine-rich tetratricopeptide repeat-containing protein α (human (endogenous in 293 and 293T)) (UniProt O43765); experiment: co-IP; endogenous SGTA immunoprecipitated from 293T or CV-1 lysate; 0.1% digitonin, 50 mM Tris, 150 mM NaCl, 1 mM EDTA; protein A agarose, washes without detergent

Hsc70 (from UniProt P11142 1-646)
binding [1]: binds

B1: BAP31 (protein, UniProt P51572 1-246)
chain: MSLQWTAVATFLYAEVFVVLLLCIPFISPKRWQKIFKSRLVELLVSYGNTFFVVLIVILVLLVIDAVREIRKYDDVTEKVNLQNNPGAMEHFHMKLFRAQRNLYIAGFSLLLSFLLRRLVTLISQQATLLASNEAFKKQAESASEAAKKYMEENDQLKKGAAVDGGKLDVGNAEVKLEEENRSLKADLQKLKDELASTKQKLEKAENQVLAMRKQSEGLTKEYDRLLEEHAKLQAAVDGPMDKKEE
binding [2]: no binding
